Experimental data reported in paper doi:10.1101/2022.04.14.488335.
These are yes or no findings as the source states them, for the method shown. Some results given as binding are weak or reduced against the parent protein; the word gives no strength. Where a sequence is shown, tags or fusion partners need not be part of it.

Key:
[1] = biological target: T1, MBP-SYCP1 amino-acids 1-100 (UniProt Q15431); test: SEC
T1 sequence: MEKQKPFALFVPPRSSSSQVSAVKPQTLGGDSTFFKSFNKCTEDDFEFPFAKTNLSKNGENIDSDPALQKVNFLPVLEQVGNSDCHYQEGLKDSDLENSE

[2] = biological target: T2, MBP-SYCP1N (amino-acids 1-362) (UniProt Q15431); test: SEC
T2 sequence: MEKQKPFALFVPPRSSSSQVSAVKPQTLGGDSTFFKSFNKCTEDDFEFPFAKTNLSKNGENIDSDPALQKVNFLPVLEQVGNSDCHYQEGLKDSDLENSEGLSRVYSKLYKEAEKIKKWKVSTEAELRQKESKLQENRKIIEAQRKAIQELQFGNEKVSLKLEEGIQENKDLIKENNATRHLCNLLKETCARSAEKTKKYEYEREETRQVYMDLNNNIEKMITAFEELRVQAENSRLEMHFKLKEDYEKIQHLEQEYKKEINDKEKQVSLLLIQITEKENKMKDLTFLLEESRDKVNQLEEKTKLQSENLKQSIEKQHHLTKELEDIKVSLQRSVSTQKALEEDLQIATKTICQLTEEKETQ

[3] = biological target: T2, MBP-SYCP1N (amino-acids 1-362); test: pull-down

Measured: binding

B1: SYCE2-TEX12 complex (complex, UniProt Q6PIF2 1-218; Q9BXU0 1-123)
chain 1: MERQGVDVPHVKCKDQEPQPLGESKEHPRWEENCEEEAGGGPASASCQLTVLEGKSGLYFSSLDSSIDILQKRAQELIENINKSRQKDHALMTNFRNSLKTKVSDLTEKLEERIYQIYNDHNKIIQEKLQEFTQKMAKISHLETELKQVCHSVETVYKDLCLQPEQSLRLRWGPDHSRGKSPPRPGNSQPPDVFVSSVAETTSQATASEVQTNRDGEC
chain 2: MMANHLVKPDNRNCKRPRELESPVPDSPQLSSLGKSDSSFSEISGLFYKDEALEKDLNDVSKEINLMLSTYAKLLSERAAVDASYIDEIDELFKEANAIENFLIQKREFLRQRFTVIANTLHR
binds weakly: [1] | [2] | [3]
